This is an account of results in article doi:10.1101/2024.12.31.629942 (bioRxiv, 2024).

These are yes or no findings as the source states them, for the method shown. For some assays here: Binding seen in cells or lysates may run through a third protein. Some results given as binding are weak or reduced against the parent protein; the word gives no strength. For some assays here: Sequences can lack the tags named with a protein.

The target of test [1] is T1, H-SUMO-ZapA (E. coli (W3110)) (UniProt P0ADS2).
T1 sequence: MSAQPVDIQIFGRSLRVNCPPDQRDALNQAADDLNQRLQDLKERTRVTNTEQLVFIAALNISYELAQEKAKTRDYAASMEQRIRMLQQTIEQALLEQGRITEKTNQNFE
The experiment in a line: pull-down.

The target in test [2] is T2, ZapA fused to the T18 domain of adenylate cyclase (E. coli (W3110)) (UniProt P0ADS2).
T2 sequence: T1 sequence
Kind of test: two-hybrid.

The target of test [3] is ZapA^C19A,T50C-GFP (E. coli (W3110)) (UniProt P0ADS2). Kind of test: cross-linking.

Consider “FtsZ (wild-type, untagged) (from UniProt P0A9A6 1-383)”, for which the binding result in test [1] was “binds weakly”. Take “FtsZ^1-316 F2A fused to the T25 domain of adenylate cyclase (from UniProt P0A9A6 1-316) (domain or fragment)”: the binding entry in test [2] is recorded as “no binding”.

Take “FtsZ^1-316 L178E fused to the T25 domain of adenylate cyclase (from UniProt P0A9A6 1-316) (domain or fragment)”: the binding entry in test [2] was “no binding”. As to “FtsZ^1-316 fused to the T25 domain of adenylate cyclase (from UniProt P0A9A6 1-316) (domain or fragment)”, the binding result in test [2] was “binds”. The same measure, in the same setting: to “FtsZ^317-370 fused to the T25 domain of adenylate cyclase (from UniProt P0A9A6 317-370) (domain or fragment)” belongs “no binding”; to “FtsZ^317-383 fused to the T25 domain of adenylate cyclase (from UniProt P0A9A6 317-383) (domain or fragment)”, “no binding”.

As to FtsZ^N73C (from UniProt P0A9A6 1-383), the binding result in test [3] is recorded as “binds”. Turning to “full length FtsZ fused to the T25 domain of adenylate cyclase (from UniProt P0A9A6 1-383)”, the binding result in test [2] is listed as “binds”.
